The chains behind the UniProt entries cited, without tags or fusion partners. Where a name states a change or a piece, a line headed by the entry shows the natural chain unless it says otherwise. Residues count along the entry.
UniProt Q04206, whole entry: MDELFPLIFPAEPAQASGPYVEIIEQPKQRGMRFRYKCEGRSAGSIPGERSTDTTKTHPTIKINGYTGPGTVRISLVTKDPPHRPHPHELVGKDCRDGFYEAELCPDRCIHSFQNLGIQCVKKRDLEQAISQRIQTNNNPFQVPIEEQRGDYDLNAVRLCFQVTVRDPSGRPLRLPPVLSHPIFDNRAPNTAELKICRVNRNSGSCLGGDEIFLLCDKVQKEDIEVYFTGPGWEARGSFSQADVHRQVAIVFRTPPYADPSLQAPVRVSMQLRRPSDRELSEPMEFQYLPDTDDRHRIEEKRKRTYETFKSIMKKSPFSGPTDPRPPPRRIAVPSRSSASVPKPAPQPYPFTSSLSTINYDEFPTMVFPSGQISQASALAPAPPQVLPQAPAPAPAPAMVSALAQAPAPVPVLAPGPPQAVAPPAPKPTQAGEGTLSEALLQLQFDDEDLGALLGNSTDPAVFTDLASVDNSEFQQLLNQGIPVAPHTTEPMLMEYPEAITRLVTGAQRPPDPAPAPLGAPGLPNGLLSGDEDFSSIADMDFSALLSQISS
UniProt P42224, 2-750: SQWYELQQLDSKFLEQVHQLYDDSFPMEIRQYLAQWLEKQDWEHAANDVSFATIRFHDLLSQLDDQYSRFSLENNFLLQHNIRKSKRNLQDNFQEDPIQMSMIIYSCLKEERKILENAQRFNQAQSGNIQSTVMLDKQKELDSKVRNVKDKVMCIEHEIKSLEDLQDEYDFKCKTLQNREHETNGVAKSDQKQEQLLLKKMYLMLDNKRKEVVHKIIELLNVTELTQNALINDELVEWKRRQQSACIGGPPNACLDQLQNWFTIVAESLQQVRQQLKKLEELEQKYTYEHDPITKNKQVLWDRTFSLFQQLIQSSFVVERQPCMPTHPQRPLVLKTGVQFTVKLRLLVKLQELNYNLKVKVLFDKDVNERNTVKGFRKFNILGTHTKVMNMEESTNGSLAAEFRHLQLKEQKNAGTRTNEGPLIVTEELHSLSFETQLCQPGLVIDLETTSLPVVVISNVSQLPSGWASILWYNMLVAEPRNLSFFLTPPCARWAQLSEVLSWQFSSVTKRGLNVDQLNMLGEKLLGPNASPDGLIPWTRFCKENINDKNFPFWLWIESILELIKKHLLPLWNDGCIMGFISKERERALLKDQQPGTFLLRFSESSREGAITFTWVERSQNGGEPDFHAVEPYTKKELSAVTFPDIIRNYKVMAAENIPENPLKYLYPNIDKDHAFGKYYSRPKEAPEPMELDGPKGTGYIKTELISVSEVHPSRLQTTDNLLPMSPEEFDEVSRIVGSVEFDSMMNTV
UniProt P17676: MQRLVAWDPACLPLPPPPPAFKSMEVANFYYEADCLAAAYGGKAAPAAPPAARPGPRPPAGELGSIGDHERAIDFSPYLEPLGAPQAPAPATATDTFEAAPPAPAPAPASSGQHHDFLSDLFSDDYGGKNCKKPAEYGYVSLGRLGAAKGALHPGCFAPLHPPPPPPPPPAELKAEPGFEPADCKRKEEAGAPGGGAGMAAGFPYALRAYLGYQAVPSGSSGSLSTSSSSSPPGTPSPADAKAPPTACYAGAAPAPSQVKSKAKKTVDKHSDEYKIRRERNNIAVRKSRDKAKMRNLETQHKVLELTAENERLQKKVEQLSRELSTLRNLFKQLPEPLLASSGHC

According to US20180298381:

Legend:
NF-κB p65 (Homo sapiens) = NF-κB p65 (Homo sapiens) (UniProt Q04206); assay: competition with a labelled probe; settings: dodecylene (C12) spacer joining the strands; protein in an extract
STAT1 (Homo sapiens) = STAT1 (Homo sapiens) (UniProt P42224); assay: competition with a labelled probe; settings: dodecylene (C12) spacer joining the strands; protein in an extract
[1] = target: NF-IL6 (C/EBP) (Homo sapiens) (UniProt P17676); assay: competition with a labelled probe; settings: dodecylene (C12) spacer joining the strands; protein in an extract
NFATc1 (Homo sapiens) = target: T1, NFATc1 (Homo sapiens) (UniProt O95644); assay: competition with a labelled probe; settings: dodecylene (C12) spacer joining the strands; protein in an extract
T1 sequence (looked up, limits assumed): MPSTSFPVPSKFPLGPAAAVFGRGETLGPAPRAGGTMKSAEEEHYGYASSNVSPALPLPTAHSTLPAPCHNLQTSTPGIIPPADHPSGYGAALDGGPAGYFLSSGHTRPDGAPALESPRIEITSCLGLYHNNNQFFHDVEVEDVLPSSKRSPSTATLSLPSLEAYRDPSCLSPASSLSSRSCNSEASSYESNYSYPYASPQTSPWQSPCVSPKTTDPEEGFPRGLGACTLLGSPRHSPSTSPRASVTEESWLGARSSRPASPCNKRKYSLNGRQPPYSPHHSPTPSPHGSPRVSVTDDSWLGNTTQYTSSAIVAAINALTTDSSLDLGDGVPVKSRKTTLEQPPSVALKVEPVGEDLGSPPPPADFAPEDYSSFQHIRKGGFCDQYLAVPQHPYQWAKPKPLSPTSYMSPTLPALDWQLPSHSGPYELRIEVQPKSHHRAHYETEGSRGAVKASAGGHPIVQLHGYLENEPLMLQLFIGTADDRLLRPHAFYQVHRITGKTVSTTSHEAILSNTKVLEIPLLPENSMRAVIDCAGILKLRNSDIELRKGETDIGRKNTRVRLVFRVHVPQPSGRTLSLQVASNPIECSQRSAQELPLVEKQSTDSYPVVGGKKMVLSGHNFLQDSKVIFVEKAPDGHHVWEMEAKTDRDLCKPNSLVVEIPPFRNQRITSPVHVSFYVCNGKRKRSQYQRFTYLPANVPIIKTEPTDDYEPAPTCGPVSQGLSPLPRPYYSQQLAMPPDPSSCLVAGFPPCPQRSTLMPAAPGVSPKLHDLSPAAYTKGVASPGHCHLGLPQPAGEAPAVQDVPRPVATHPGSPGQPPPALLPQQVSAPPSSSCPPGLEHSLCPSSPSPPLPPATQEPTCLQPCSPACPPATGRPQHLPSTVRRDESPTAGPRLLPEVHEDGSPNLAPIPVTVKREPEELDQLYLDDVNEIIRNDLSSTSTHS

STAT6 (Mus musculus) = target: T2, STAT6 (Mus musculus) (UniProt P52633); assay: EMSA; settings: lung nuclear extract, poly(dI-dC), room temperature 30 min; reduced after chimeric decoy treatment in vivo; protein in an extract; protein details: nuclear extract of OVA-challenged mouse lung; label: 32P 3' end
T2 sequence (looked up, limits assumed): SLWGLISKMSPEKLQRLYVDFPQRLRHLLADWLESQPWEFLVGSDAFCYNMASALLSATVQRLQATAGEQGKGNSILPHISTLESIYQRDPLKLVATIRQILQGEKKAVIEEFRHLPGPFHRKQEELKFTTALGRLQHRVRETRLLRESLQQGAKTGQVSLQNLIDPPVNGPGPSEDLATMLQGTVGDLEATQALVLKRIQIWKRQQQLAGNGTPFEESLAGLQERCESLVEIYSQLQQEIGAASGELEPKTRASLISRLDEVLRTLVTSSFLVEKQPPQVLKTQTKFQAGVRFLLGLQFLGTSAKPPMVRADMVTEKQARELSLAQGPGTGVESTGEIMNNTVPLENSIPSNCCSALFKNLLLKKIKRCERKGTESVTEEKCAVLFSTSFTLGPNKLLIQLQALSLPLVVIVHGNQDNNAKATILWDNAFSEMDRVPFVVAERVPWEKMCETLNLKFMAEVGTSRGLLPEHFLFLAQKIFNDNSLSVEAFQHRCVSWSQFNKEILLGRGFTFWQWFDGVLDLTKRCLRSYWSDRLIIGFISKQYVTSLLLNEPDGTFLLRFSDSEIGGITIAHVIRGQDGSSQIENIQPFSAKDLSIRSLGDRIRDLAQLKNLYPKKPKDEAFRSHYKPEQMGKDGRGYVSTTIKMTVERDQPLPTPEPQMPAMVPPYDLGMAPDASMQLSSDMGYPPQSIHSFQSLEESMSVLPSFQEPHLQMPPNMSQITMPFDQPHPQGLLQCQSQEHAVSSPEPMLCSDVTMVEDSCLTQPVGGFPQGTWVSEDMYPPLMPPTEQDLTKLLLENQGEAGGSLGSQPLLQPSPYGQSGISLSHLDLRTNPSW

Sequence | IC50 (NF-κB p65 (Homo sapiens)) | further results
GGGACTTCCAGGAAT [NF-κB/STAT1-15mer-A] | 31.8 nM | IC50 (STAT1 (Homo sapiens)): 13.9 nM
GGGACTTCCCATGAA [NF-κB/STAT6-15mer-A] | 18.8 nM | 
GGGACTTCCCGGAAT [NF-κB/STAT1-15mer-B] | 9.94 nM | IC50 (STAT1 (Homo sapiens)): 19.1 nM
GGGATTCCGCAATCT [NF-κB/NF-IL6-15mer-B] | 9.51 nM | IC50 [1]: 165 nM
GGGATTTCCCAATCT [NF-κB/NF-IL6-15mer-A] | 2.28 nM | IC50 [1]: > 400 nM
GGGATTTCCTGGGAA [NF-κB/STAT6-15mer-B] | 3.61 nM | 
GGGGAATTTTCCTCT [NF-κB/NF-AT-15mer-A] | 5.69 nM | IC50 (NFATc1 (Homo sapiens)): 133 nM
GGGGACTTCCGGGTG [NF-κB/Ets1-15mer-B] | 6.09 nM | 
GGGGACTTCCTGCTC [NF-κB/Ets1-15mer-A] | 5.51 nM | 
GGGGGATTTTCCTCT [NF-κB/NF-AT-15mer-B] | 1.67 nM | IC50 (NFATc1 (Homo sapiens)): 146 nM
GTATTTCCCAGAAAAGGAAC (double strand) [STAT6 EMSA probe] |  | binding result (STAT6 (Mus musculus)): binds

Where cells or extracts were used, other partners may take part. For some assays here: Where a protein sequence is shown, tags need not be part of it. For some assays here: For at least one entry, the source does not settle the construct or the ends of the probe.
